The results in this text go back to patent US20040038284A1.

Protein sequences, listed by entry. Tags and fused reporters are not part of them. Residues count along the entry.
UniProt P01137, residues 279-390: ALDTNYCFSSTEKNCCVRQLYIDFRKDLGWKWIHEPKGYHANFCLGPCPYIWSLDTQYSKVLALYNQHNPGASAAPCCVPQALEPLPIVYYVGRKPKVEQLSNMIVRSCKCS

In this experiment the target is T1, third TGFβ receptor (RIII) (human) (UniProt Q03167).
T1 sequence (looked up): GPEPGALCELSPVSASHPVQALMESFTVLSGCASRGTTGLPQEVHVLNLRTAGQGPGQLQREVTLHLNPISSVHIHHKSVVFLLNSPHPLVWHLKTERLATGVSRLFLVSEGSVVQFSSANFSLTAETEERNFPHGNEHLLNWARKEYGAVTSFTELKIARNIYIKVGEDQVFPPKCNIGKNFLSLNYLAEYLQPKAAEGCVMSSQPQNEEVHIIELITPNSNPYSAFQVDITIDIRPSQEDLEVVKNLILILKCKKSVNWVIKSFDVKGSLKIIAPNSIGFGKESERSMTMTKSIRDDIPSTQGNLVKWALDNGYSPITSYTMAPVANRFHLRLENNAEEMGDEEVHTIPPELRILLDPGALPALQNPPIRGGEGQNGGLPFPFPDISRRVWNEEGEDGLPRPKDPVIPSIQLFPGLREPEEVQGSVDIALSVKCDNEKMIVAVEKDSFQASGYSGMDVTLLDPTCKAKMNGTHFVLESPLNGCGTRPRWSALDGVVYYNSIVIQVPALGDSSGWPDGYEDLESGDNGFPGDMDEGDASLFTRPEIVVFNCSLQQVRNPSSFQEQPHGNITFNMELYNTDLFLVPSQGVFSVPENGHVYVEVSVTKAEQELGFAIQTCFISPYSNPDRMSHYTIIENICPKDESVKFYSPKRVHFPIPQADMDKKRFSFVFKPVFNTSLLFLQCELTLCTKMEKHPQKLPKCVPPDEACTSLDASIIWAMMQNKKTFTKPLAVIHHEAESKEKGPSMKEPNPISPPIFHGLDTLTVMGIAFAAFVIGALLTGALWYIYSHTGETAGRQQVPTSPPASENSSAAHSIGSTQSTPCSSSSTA
Put plainly: 125I-TGFβ 1 cross-linking to cell surface receptors of colon cancer cell lines, SDS-PAGE, autoradiography.

Results are given in words; binding and its absence hold for the method and conditions named. Some binding calls cover weakened binding; strength is not graded here.

Consider “125I-labeled human TGFβ 1 (from UniProt P01137 279-390) (ligand)”, for which the binding entry was “binds”.
